Drawing on patent publication US20200299389A1, this text covers binding for 1 molecule.

Chains of the proteins cited; added tags and fusions are not shown. Lines headed by an entry give the natural chain unless they say otherwise; changes in a name come on top.
UniProt Q9NZQ7: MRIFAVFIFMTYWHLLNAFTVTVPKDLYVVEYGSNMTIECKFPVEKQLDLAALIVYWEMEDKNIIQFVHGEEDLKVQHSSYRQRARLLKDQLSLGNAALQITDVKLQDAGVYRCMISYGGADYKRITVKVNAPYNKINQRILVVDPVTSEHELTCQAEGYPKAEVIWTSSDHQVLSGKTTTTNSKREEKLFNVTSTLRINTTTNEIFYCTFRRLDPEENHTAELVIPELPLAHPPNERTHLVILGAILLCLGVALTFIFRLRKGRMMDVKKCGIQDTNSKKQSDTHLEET

Results are given in words; binding and its absence hold for the method and conditions named. Some entries that bind do so weakly or less than the wild type.

In the assay the target is human PD-L1 IgG1 Fc chimera (human) (UniProt Q9NZQ7). Nature of the assay: phage ELISA screening on PD-L1-Fc. In general terms: ELISA stands for enzyme-linked immunosorbent assay.

B1: OM-PD-L1-32 (Fab, V domains shown)
VH: QVQLVQSGAKVKKPGSSVKVSCKASGGTFSSYAISWVRQAPGQGLEWMGRIIPILGIANYAQKFQGRVTITADKSTSTAYMELSSLRSEDTAVYYCARVVPGYSYGPFDYWGQGTTVTVSS
VL: QSALTQPASVSGSPGQSITISCTGTSNDVGSYNSVSWYQQHPGKAPKLVIYEVANRPSGVPDRFSGSKSGNTASLTISGLQAEDEADYYCSSYTSSSTLVFGGGTKLTVLG
B1: the binding entry is listed as “binds”.
